No constants are given. Whether binding was seen depends on the method and setting. In cells and extracts the contact can be indirect. Here binding means that the protein was enriched with, or labelled near, the bait; the list need not be complete.
Assays:
[1] = target: nuclear RNA polymerase D1 (NRPD1)-3xFLAG, largest subunit of RNA polymerase IV (Arabidopsis thaliana) (UniProt Q9LQ02); assay: affinity purification with mass spectrometry; chromatin immunoprecipitation coupled with mass spectrometry (ChIP-MS) from inflorescences; NRPD1-3xFLAG on anti-FLAG M2 magnetic beads or NRPD1-3xHA by HA antibody with Dynabeads Protein A and G; nontransgenic Col-0 as control; two independent replicates
[2] = target: nuclear RNA polymerase D1 (NRPD1)-HA, largest subunit of RNA polymerase IV (Arabidopsis thaliana) (UniProt Q9LQ02); assay: as above

Protein sequences, listed by entry. Tags and fused reporters are not part of them.
UniProt Q9LQ02: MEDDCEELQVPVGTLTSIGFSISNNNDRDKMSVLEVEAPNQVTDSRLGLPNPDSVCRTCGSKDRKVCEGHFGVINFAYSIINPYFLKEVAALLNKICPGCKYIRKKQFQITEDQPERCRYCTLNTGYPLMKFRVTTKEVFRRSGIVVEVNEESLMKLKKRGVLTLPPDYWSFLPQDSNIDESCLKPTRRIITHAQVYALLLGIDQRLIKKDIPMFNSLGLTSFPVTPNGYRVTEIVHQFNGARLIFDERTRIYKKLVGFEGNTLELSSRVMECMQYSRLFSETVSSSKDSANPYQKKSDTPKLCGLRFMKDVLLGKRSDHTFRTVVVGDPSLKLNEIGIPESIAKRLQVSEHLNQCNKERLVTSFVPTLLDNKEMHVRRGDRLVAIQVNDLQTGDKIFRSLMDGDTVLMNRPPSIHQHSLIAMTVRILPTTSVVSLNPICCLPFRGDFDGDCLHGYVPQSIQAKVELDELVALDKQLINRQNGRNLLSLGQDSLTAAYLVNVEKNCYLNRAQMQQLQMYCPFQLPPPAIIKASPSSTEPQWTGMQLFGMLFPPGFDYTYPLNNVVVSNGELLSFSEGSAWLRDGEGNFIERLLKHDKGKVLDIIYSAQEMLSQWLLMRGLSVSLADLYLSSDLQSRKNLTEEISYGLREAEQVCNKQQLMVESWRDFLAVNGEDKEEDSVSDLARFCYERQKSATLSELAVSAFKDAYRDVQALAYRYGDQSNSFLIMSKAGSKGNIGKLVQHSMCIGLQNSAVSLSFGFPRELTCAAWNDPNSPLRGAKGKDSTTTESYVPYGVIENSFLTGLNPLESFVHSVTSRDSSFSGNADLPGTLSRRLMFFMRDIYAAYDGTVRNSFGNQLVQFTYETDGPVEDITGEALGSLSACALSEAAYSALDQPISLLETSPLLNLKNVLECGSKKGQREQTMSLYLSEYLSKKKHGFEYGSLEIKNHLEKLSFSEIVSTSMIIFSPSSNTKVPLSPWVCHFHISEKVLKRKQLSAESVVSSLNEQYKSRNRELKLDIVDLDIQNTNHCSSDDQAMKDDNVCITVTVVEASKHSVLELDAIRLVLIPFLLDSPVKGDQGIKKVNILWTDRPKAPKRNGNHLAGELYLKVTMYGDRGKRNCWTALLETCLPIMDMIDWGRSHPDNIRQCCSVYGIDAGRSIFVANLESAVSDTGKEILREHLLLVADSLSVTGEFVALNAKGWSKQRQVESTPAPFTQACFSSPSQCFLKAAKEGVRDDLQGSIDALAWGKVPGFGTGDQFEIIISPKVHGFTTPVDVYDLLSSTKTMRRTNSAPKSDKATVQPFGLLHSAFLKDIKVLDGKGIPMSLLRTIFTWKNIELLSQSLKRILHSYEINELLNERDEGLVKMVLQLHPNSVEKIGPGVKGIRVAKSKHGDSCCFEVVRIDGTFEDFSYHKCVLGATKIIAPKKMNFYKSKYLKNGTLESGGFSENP
UniProt O82504: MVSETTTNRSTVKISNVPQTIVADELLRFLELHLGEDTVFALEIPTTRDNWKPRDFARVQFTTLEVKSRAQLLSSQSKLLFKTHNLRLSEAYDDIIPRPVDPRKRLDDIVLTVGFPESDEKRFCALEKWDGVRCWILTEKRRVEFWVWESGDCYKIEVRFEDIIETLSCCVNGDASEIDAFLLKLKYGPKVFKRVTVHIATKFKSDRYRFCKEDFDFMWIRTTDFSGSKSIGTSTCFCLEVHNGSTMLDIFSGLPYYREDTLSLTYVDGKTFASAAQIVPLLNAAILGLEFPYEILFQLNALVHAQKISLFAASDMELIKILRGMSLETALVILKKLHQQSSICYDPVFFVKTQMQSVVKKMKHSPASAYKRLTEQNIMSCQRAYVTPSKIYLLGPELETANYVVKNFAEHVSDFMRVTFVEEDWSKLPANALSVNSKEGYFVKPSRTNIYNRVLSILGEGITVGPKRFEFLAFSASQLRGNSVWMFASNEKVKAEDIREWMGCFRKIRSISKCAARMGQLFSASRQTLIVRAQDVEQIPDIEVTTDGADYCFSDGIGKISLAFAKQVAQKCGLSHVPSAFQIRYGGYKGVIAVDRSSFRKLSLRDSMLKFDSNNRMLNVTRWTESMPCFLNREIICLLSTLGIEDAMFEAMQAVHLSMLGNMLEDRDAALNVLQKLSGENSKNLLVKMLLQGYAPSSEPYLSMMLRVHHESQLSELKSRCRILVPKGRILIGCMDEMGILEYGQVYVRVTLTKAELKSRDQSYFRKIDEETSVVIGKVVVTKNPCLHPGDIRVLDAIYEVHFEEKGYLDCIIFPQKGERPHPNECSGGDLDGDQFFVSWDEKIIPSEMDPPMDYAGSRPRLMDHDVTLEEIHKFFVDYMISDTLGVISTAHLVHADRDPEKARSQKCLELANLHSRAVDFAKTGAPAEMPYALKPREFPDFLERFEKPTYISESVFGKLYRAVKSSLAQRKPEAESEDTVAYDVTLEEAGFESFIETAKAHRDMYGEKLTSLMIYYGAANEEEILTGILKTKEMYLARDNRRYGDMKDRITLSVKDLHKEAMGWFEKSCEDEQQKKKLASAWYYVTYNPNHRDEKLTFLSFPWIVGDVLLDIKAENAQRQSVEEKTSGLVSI

binding [1] | binding [2] | Molecule
binds | binds | RDR2 (from UniProt O82504 1-1133)
binds | binds | SAWADEE HOMEODOMAIN HOMOLOGUE 1 (SHH1) (protein, UniProt Q9XI47 1-258) MAASDDSSHYFTEFTLSEIVDMENLYKELGDQSLHKDFCQTVASTFSCSVNRNGKSSITWKQVQIWFQEKLKHQSQPKSKTLPSPPLQIHDLSNPSSYASNASNATFVGNSTFVQTRKGKASDLADLAFEAKSARDYAWYDVSSFLTYRVLRTGELEVRVRFSGFDNRHDEWVNVKTSVRERSIPVEPSECGRVNVGDLLLCFQEREDQALYCDGHVLNIKRGIHDHARCNCVFLVRYELDNTEESLGLERICRRPEE

— PMC9699677
